From publication PMC7819943, “Rice protein-binding microarrays: a tool to detect cis-acting elements near promoter regions in rice”
The list shows a part of the results.

These sequences were tested against T1, OsSMF1 (Oryza sativa, UniProt Q6ZLB0 1-436) (assay: protein-binding microarray (RPBM); PBS, 2% BSA, 51.3 ng/ul salmon testes DNA, 50 uM zinc acetate, 200 nM TF, 25 C, 1 h; high values mean tight binding). Conditions: protein: recombinant; tags: N-terminal polyhistidine and DsRed monomer fusion (pET32a); chain copies: 2; label: CyDye5-dUTP incorporated in the synthesized complementary strand; 3' TTTTT single-stranded linker to array surface; dsDNA, one strand shown.
T1 sequence: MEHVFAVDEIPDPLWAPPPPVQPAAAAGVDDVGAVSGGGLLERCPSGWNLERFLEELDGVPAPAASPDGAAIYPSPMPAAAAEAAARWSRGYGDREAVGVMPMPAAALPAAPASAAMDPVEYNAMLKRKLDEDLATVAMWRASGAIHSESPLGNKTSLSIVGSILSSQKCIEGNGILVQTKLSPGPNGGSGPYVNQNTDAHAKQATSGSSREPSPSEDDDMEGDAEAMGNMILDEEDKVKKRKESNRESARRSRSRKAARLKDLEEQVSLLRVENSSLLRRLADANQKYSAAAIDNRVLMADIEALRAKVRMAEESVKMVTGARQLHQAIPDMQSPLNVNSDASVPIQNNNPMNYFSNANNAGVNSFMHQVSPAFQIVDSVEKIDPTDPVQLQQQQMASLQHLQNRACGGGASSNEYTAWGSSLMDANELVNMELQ
Procedure, shortened: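 Polyhistidine-tagged DsRed fusions of transcription factors, joined at the N-terminus, were expressed in E. coli BL21-CodonPlus and isolated on Ni–NTA. They were incubated at 200 nM for 1 h at 25 °C on a custom Agilent array, double-stranded and BSA-blocked, in PBS with 2% BSA, salmon testes DNA and 50 µM zinc acetate. The binding signal is per-feature fluorescence intensity (arbitrary units) read on an Axon 4000B scanner after washing.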

| Sequence | binding signal |
| --- | --- |
| CATCCATTCTCCTCCCCTCCCGTCATCCACTCATCCCGTGCGGAGTCACCTAGTGCAG | 3690 fluorescence intensity (a.u.) |
| GGCCGGCGGCTGAGGCGAGATTCGCGGCGACCACGTCGGCCGGAGTCACCTAGTGCAG | 5170 fluorescence intensity (a.u.) |
| AAATATAGAGATTTATTAACATAACAGCCTATCCACGTGGCGGAGTCACCTAGTGCAG | 17200 fluorescence intensity (a.u.) |
| TCAACCATGGGTCACCTAGGTCACAGTCACATTAGATCTGCGGAGTCACCTAGTGCAG | 4090 fluorescence intensity (a.u.) |
| GTCCTCGCCCGCCACCGCTCGCCGCCGGCGTCTAGGGTCGCGGAGTCACCTAGTGCAG | 3960 fluorescence intensity (a.u.) |
| CCGATCGGTCGTGACCACCAAGTCATCTTGAAATTCATCACGGAGTCACCTAGTGCAG | 4710 fluorescence intensity (a.u.) |
| ATTTTATTATTCTTGCAGATCAAATTGCCACGTAAGCGTCCGGAGTCACCTAGTGCAG | 47800 fluorescence intensity (a.u.) |
| GGAGAAACACCAAGCTGACATGTGCATTCCAGATCGCAGACGGAGTCACCTAGTGCAG | 5080 fluorescence intensity (a.u.) |
| GCCCAACTTATATGCCACGTCACTAGGACAGCTGGCCCCACGGAGTCACCTAGTGCAG | 18000 fluorescence intensity (a.u.) |
| GTGGCATTAGTTTGTCATTTGTGATCGAACCGCTTTGACACGGAGTCACCTAGTGCAG | 3500 fluorescence intensity (a.u.) |
| CTATGTCTGTGTTTGATGATTGCAAGCTGATGTGGGATGGCGGAGTCACCTAGTGCAG | 3280 fluorescence intensity (a.u.) |
| CCATCGCAAAATCCACCTCAGCTAGCTACCCAAGCGCACGCGGAGTCACCTAGTGCAG | 5010 fluorescence intensity (a.u.) |
| CCACCACTACGACGTAAGCATCCACACTACTACAGTCCACCGGAGTCACCTAGTGCAG | 3770 fluorescence intensity (a.u.) |
| GGCGGTATCGACGAAGAATCTCGGGGCGGTGGGGAGGTTTCGGAGTCACCTAGTGCAG | 4450 fluorescence intensity (a.u.) |
| GGGATGTGCGGGCGGCTCCGGCCTACGTGGGCGTGCCGGGCGGAGTCACCTAGTGCAG | 6000 fluorescence intensity (a.u.) |
| GCCACAAGTTTAAAGTGAAGCAACCATCAATTTTGGCCCACGGAGTCACCTAGTGCAG | 3210 fluorescence intensity (a.u.) |
| CGACCTTAATGTTCAACGTGTCATGCATTAGTGAAATAATCGGAGTCACCTAGTGCAG | 4610 fluorescence intensity (a.u.) |
| CCCAGGAACATGCATTCGTTCCATCCCTTTGATCAGCTGACGGAGTCACCTAGTGCAG | 3650 fluorescence intensity (a.u.) |
| GTCCTCATCCTAGGTAAAATAACCACGTCATCTCACAGGTCGGAGTCACCTAGTGCAG | 20700 fluorescence intensity (a.u.) |
| GCCTCCCCATCGCGCTGCCACCTCCGCCTCCCGCCGTTCCCGGAGTCACCTAGTGCAG | 4670 fluorescence intensity (a.u.) |
| GCTCGTCGTTGTGCCTCGCTCCAAACCGCCGAACCCGTGGCGGAGTCACCTAGTGCAG | 3340 fluorescence intensity (a.u.) |
| GAAAATTAACAAGTTTAAGGAGTCAGCATGGAAATTCGTCCGGAGTCACCTAGTGCAG | 5780 fluorescence intensity (a.u.) |
| CCCTCTTCGTCGACACCTCATCTCCTCCCCAAGAACCAGCCGGAGTCACCTAGTGCAG | 3260 fluorescence intensity (a.u.) |
| TTATCTGCAAATGGGTCGTTATCTCCTGAAGCTGTTGACACGGAGTCACCTAGTGCAG | 17600 fluorescence intensity (a.u.) |
| ACATGATTTGTGCTCCATGACCTCTTTCTTCTATTATCTACGGAGTCACCTAGTGCAG | 7980 fluorescence intensity (a.u.) |
| TGCTATGCATACGACTCAGCTGTCCGACTCATGTATGAATCGGAGTCACCTAGTGCAG | 3720 fluorescence intensity (a.u.) |
| GAAAATGAGTCAACTCCTATGTGGCATGTCACATGAGCACCGGAGTCACCTAGTGCAG | 10400 fluorescence intensity (a.u.) |

| Sequence | binding signal |
| --- | --- |
| CGTACTGTAGCTAGCTACTCTTTAGCAAGCTCACATCTTTCGGAGTCACCTAGTGCAG | 3460 fluorescence intensity (a.u.) |
| TCTCCAAAATTAAACACCTATTTATGAAGCTAAACGTCAGCGGAGTCACCTAGTGCAG | 3140 fluorescence intensity (a.u.) |
| CGCCACCTAACCCACGATCTGATCGGTCTGTGACTGGTCACGGAGTCACCTAGTGCAG | 3510 fluorescence intensity (a.u.) |
| CCACTAATCCCTCCTCTCATCGCACCACCACGCCACTGAGCGGAGTCACCTAGTGCAG | 3590 fluorescence intensity (a.u.) |
| GATGTGCGATAGCAGAATGGTGCTAAGTGAGTCACATCGTCGGAGTCACCTAGTGCAG | 3970 fluorescence intensity (a.u.) |
| ATTAATATGATTAAATAGAAATTAGTTACTCTCTTTGTCCCGGAGTCACCTAGTGCAG | 6140 fluorescence intensity (a.u.) |
| ACGCCGACACCGCCGCGCCGCTCCGCCGCCCCTATCACGCCGGAGTCACCTAGTGCAG | 16100 fluorescence intensity (a.u.) |
| AGACTAGTTTTAATCTGACTAGATTCCTTTTCAGCGTGAGCGGAGTCACCTAGTGCAG | 5700 fluorescence intensity (a.u.) |
| CGTGTCCTAATCACCTTGCTTACGTGGCACTTGCCGATTCCGGAGTCACCTAGTGCAG | 43900 fluorescence intensity (a.u.) |
| CGTTGGGTGTGGGCAAGCGGGCCACGGCATCACGTGCCTTCGGAGTCACCTAGTGCAG | 3160 fluorescence intensity (a.u.) |
| TTCATATAAAATACACCGTTTAACAGTTTAATAAGCATTCCGGAGTCACCTAGTGCAG | 12600 fluorescence intensity (a.u.) |
| GTCCATCTAATCTAAAGTATGGTTTCTTGGTGAGTGAGTGCGGAGTCACCTAGTGCAG | 3710 fluorescence intensity (a.u.) |
| TTTGTTCTAATCATCCTTCGATTGGGTTGGGTTGAGCAATCGGAGTCACCTAGTGCAG | 3320 fluorescence intensity (a.u.) |
| ACAACCTTATGCCTACATGGCGCATTTTGTTTGTTTGGGTCGGAGTCACCTAGTGCAG | 3780 fluorescence intensity (a.u.) |
| TATGTCATTGACATGTAGGTCCCACGTTAAGTCAGCTACCCGGAGTCACCTAGTGCAG | 34900 fluorescence intensity (a.u.) |
| TTGATGGAGATGGGAGTTGGTGCGGATGTCCTTGTCGCCCCGGAGTCACCTAGTGCAG | 3200 fluorescence intensity (a.u.) |
| CGGAATTGCCCCAACCAAGGAGGAGACGGAGGGGAGGGCACGGAGTCACCTAGTGCAG | 3290 fluorescence intensity (a.u.) |
| AATTGTTTGGTTGGTAGAATGACGCCTCAATCCGCACCATCGGAGTCACCTAGTGCAG | 3290 fluorescence intensity (a.u.) |
| ATTGGGTCCAGTGGGTGAAGTGTACCAAGCCGAGGTGGGACGGAGTCACCTAGTGCAG | 3490 fluorescence intensity (a.u.) |
| TCTCCAGCTATTTGACCAGGTTATCTCTGAGCTCCACAGTCGGAGTCACCTAGTGCAG | 4300 fluorescence intensity (a.u.) |
| AGCTGTGCAGCAGCAAGGACGGCCCAGAGAGAGATAGCCACGGAGTCACCTAGTGCAG | 3490 fluorescence intensity (a.u.) |
| CCTCCAATCCACTGGTAGCACACGCACGTCCATTCTTCGTCGGAGTCACCTAGTGCAG | 3690 fluorescence intensity (a.u.) |
| ATTTTCTCTGCAAAACGTGTCACTCAATTGTACTTCTTCCCGGAGTCACCTAGTGCAG | 8000 fluorescence intensity (a.u.) |
| CCACCCAGGTCAGTGAACATTCCTTCCTCTTCACATGCATCGGAGTCACCTAGTGCAG | 3300 fluorescence intensity (a.u.) |
| GATAAGCCGACGTGTCACCTCTTCCCGCCCTCCGGCCTCCCGGAGTCACCTAGTGCAG | 21300 fluorescence intensity (a.u.) |
| TTTATGGAATTTTAACCCTGACATCCATCACTGAATTTGACGGAGTCACCTAGTGCAG | 19200 fluorescence intensity (a.u.) |
| ATGTAGAGTGAAACGGCCACTCCGCTTTCAGGCCGCACGTCGGAGTCACCTAGTGCAG | 3670 fluorescence intensity (a.u.) |

Copied from the list:
Entry of CGCCACCTAACCCACGATCTGATCGGTCTGTGACTGGTCACGGAGTCACCTAGTGCAG under binding signal: 3510 fluorescence intensity (a.u.)
Entry of CGTGTCCTAATCACCTTGCTTACGTGGCACTTGCCGATTCCGGAGTCACCTAGTGCAG under binding signal: 43900 fluorescence intensity (a.u.)
Entry of TCTCCAGCTATTTGACCAGGTTATCTCTGAGCTCCACAGTCGGAGTCACCTAGTGCAG under binding signal: 4300 fluorescence intensity (a.u.)
